Experiment: general procedure: Fmoc solid-phase peptide synthesis; aminomethyl polystyrene resin (0.745 mmol/g) with Fmoc-Rink amide linker; 2-chlorotrityl chloride resin; H-Gly-2-chlorot; Oxyma/DIC
Conditions: whole synthesis, 495 nm

Substance | final HPLC purity
FAM-Ahx-Thr-Gly-Arg-Ala-Lys-Arg-Arg-Met-Gln-Tyr-Asn-Arg-Arg-NH2 | 98%
MeO-PEG- D- Arg- D- Arg- D- Asn- D- Tyr- D- Gln- D- Nle- D- Arg- D- Arg- D- Lys- D- Ala- D- Arg-Gly- D- Thr-Lys(NBD)-OH | 100%
NBD-Ahx-Thr-Gly-Arg-Ala-Lys-Arg-MeArg-Nle-Gln-Tyr-Asn-Arg-Arg-D-Phe-D-Val-NH2 | 97%
NBD-Ahx-Thr-Gly-Arg-Ala-Lys-MeArg-MeArg-Nle-Gln-Tyr-Asn-MeArg-MeArg-NH2 | 97%
NBD-Ahx-cyclo[Lys-Thr-Gly-Arg-Ala-Lys-Arg-Arg-Nle-Gln-Tyr-Asn-Arg-MeArg-Gly] | 99%
NBD-PEG-D-Thr-Gly-D-Arg-D-Ala-D-Lys-D-Arg-D-Arg-D-Nle-D-Gln-D-Tyr-D-Asn-D-Arg-D-Arg-OH | 100%

Reference: article PMC5947527 (Chemical Science, 2015)
